In paper PMC9141077:
No constants are given. Whether binding was seen depends on the method and setting. In cells and extracts the contact can be indirect. Some binding calls cover weakened binding; strength is not graded here.

Sequences of proteins named here, by UniProt entry; tags and fusion partners are left off. A change or cut given only in a name is not applied to a line headed by its entry. Residues count along the entry.
UniProt P13612, residues 34-1032: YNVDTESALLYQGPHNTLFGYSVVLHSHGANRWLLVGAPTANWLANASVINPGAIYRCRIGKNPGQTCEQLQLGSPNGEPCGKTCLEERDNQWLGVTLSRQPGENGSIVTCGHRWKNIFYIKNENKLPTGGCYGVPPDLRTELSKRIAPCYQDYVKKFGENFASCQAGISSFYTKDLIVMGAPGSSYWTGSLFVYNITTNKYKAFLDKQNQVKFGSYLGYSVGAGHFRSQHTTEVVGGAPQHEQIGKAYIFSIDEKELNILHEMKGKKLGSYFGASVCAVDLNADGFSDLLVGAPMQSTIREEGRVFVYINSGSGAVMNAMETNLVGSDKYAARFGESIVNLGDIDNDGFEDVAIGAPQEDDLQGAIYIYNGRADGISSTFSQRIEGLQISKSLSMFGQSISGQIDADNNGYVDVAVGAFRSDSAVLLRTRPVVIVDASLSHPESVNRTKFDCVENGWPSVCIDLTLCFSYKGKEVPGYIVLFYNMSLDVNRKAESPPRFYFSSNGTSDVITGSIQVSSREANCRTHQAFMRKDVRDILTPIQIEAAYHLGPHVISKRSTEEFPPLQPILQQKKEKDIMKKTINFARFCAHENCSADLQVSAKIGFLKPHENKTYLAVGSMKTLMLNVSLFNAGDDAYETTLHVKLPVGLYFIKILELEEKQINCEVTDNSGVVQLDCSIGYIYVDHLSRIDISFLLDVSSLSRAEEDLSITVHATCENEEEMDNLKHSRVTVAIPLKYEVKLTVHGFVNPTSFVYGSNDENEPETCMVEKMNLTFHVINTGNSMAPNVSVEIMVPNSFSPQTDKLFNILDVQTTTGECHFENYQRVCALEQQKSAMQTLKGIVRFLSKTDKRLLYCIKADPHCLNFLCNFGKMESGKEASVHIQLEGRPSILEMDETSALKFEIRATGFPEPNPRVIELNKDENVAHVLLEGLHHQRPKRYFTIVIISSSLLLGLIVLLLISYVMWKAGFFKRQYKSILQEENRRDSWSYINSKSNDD
UniProt P05556: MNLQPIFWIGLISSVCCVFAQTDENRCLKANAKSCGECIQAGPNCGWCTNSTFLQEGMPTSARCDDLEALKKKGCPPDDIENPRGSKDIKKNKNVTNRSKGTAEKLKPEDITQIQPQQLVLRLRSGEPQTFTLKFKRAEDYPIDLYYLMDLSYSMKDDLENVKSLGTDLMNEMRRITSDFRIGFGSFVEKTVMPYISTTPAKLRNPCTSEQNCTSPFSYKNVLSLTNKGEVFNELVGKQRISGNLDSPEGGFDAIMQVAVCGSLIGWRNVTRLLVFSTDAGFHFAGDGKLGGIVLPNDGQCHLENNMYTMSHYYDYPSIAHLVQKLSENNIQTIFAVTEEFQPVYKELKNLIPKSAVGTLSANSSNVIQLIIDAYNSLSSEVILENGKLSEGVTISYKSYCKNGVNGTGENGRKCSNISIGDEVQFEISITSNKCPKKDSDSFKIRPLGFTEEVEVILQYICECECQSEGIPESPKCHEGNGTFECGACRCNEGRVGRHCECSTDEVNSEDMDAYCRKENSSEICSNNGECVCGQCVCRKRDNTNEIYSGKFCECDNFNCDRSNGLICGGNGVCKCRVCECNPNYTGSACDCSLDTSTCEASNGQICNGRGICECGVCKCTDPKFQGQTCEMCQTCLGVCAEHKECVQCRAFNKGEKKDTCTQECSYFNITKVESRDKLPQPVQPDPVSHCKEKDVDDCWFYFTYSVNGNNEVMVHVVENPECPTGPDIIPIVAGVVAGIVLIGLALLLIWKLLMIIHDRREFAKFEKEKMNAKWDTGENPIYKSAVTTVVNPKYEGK

Target: Mucin-16 (MUC16) bearing fully branched O-glycans, as in wild-type (WT) PDAC cells (human (endogenous in T3M4 and Capan-2)) (UniProt Q8WXI7)
Assay: co-IP; 500 µg lysate of T3M4 and Capan-2 (WT and SC) cells in non-denaturing RIPA buffer; IP with mouse anti-MUC16 (5 µg/mL) or mouse IgG overnight at 4 °C, protein G Sepharose beads 2 h at room temperature; immunoblot for integrins

Substance	binding
integrin α4 (from UniProt P13612 34-1032) (receptor)	binds
integrin β1 (from UniProt P05556 21-798) (receptor)	binds
